From the supplement of paper PMC3334620
Whole data set: some 33,000 sequences, median “E-score (-0.5 to 0.5)” near -0.0059, cut for the highest 2% near 0.26. The list shows a part of the results.

The sequences below were run against T1, Cin5 (UniProt P40917) (assay: PBM E-score (8-mer binding enrichment) (E-score (-0.5 to 0.5)); higher = stronger / more preferred TF binding). Conditions: protein concentration: 100 nM; construct: GST-full length.
T1 sequence: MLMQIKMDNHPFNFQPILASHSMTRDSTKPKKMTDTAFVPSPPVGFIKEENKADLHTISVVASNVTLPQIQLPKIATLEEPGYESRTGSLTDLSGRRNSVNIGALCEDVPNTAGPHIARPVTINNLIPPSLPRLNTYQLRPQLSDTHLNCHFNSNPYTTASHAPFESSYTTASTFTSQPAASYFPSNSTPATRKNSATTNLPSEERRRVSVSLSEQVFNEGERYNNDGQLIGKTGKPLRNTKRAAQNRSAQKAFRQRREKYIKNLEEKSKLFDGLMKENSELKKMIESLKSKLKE
In short: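 For each ungapped eight-base word taken together with its reverse complement, the Universal PBM Analysis Suite assigned an E-score. Binding data came from GST-tagged yeast transcription factors, applied at about 100-200 nM, on universal all-10-mer Agilent arrays made double-stranded by primer extension. Fluorescent anti-GST marked bound protein, and scans were normalised with masliner.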

Sequence | PBM E-score
AATCAAAG | -0.0282
ATGATGAC | 0.207
TCATTACA | 0.164
CTAAACTC | -0.0293
AGATTACT | 0.182
ATTACATA | 0.355
GAACAACA | 0.0537
AGAAGACG | 0.145
CGGGCAGA | 0.109
CACTCAAA | 0.00096
CAGTGCGG | -0.0534
CTTTCTAC | 0.0311
GGGCAATA | 0.109
ATATCAGC | 0.141
CGACTTTA | -0.0879
TGAATGAA | 0.179
AAAGACGG | 0.0469
AACGTGTA | -0.0256
GCGGTGTA | -0.0803
CTAGAAAG | 0.0796
AGATACCT | 0.0206
AGCTCAGA | 0.12
CAGGTTCC | 0.026
GGTCTTAC | -0.142
ACTTGGCC | -0.0586

Sequence | PBM E-score
ATACAGCC | 0.0459
CACCCCGC | -0.121
AATATGGA | -0.0209
ACGCACCT | -0.00098
CCATACCA | 0.0193
ATGGACCG | 0.0527
CTTGTGAC | -0.0625
CATGGTTC | 0.0143
ATTGAGGC | 0.0395
CATCAATC | 0.14
AGTGTGTG | -0.00063
GAGGAACC | -0.13
CGCCTTCA | -0.292
AACTGGAA | 0.0471
CCGCTTGC | -0.0491
GCAGTCCA | 0.00721
ATTGTGGG | 0.0197
AGCGCGAT | 0.172
CTTATCGC | -0.0252
TGGCACCA | -0.206
GACCGCAC | -0.198
ACGGTTCC | -0.0446
AGACGTTC | 0.0426
ATGCGCCA | 0.0926
GTCAAGAC | -0.183

An excerpt of these results, in markdown:

| Sequence | PBM E-score |
| --- | --- |
| CACCCCGC | -0.121 |
| AATATGGA | -0.0209 |
| ACGCACCT | -0.00098 |
| CCATACCA | 0.0193 |

Next part

Sequence | PBM E-score
CCAAACCG | 0.00669
ACCTAAAG | -0.0437
GCTCCGAC | -0.226
ATCTGGGC | -0.0822
ATTCTGCA | 0.131
ATCGACTA | -0.00461
TATCAGCA | 0.124
ACCCAAGG | 0.107
TAACGGGA | -0.0562
CAAGATGA | -0.055
ACGGAACT | 0.217
ATCGAAAT | 0.132
AGAGATCA | 0.034
CTGTAATC | 0.128
CAAGTTCG | -0.119
ACTCCGTA | 0.0453
AGACCAGC | -0.257
CAAGATAA | 0.21
ATAATGGG | 0.186
ATATGTAA | 0.106
CGGACGAC | -0.0643
AACCGCCG | -0.0722
AACAGGAC | -0.0541
AGACAATG | -0.00251
GAGCTACA | -0.141

Sequence | PBM E-score
CATATATA | 0.322
AGGGACCC | -0.279
CGCCGTTC | -0.0801
CCTGAGAC | -0.22
ACGATCGG | -0.00454
TCCTTTCA | 0.0218
AGTAAAGC | 0.129
AAGAAAGT | 0.138
AGGTGTCC | -0.182
ACTCACGC | -0.0912
GGTCATCA | 0.0568
CATCGTAA | 0.0929
ACTCTATA | 0.194
GTGCAATA | 0.0714
AAATGCGC | 0.209
GATAATGA | 0.161
GACCCATA | 0.222
AACCGTTA | -0.278
CCTCTTAA | 0.0263
CATTGCTA | 0.205
CCACTACA | 0.109
AGGGAGAA | -0.127
CAACCAAA | 0.0549
AACTCTAC | -0.124
ACAAGTAG | -0.0228

Given tab-delimited: part of the list above
Sequence	PBM E-score
CATATATA	0.322
CCTGAGAC	-0.22
ACTCACGC	-0.0912
GGTCATCA	0.0568
CATCGTAA	0.0929
GACCCATA	0.222

(next part)

Sequence | PBM E-score
AGATAAGC | 0.128
CGTAAGTA | 0.19
CCCAAAGG | -0.278
CTCACATC | 0.0895
AGTAAGCC | 0.216
CCAATTCG | 0.0162
ATTTCGCA | 0.229
AAGGTCTG | -0.105
ATCAAAAG | 0.0759
AAGACGCC | -0.064
CTAATATA | 0.0911
AGGCCAGG | -0.0853
GCTTTACC | 0.0625
CCTCAAAA | -0.0493
CTGTCAAG | -0.0953
GGAACCCC | -0.102
CTGACAAG | 0.0456
GGCCTACC | 0.00494
GCCGTGCA | -0.164
TAACTGGA | -0.00372
CCTCGTAC | -0.0306
AACTTTTA | 0.172
CCTAGGTC | -0.147
ATGAGTAC | 0.102
CCAGGCCC | -0.195

Sequence | PBM E-score
ATTGCCCC | 0.114
CCTACTAC | -0.0792
ACATCACA | 0.13
GCCGATTA | 0.128
GCGTCAGA | -0.00632
AACTACTA | 0.236
CAGAGTGG | -0.158
AGAAACAG | 0.00274
ACGTAGTG | 0.0483
AGACGCCT | -0.255
GATTACCA | 0.218
AAAGTAGT | 0.0884
CATTAGGG | -0.117
TCAATCGA | 0.142
ATCCCAAA | 0.0715
GTATCGCA | -0.0983
GAATCACC | 0.0176
CGGGACCG | -0.148
ACTAGACT | -0.257
AGTGTCAA | -0.0591
ACGGTGCC | -0.184
ACAAAGTC | -0.0487
CAGATATC | 0.128
CCGCTGAC | 0.137
AGTGAAAA | 0.126

Sequence | PBM E-score
ACCTAGGT | -0.212
CCCGCACG | -0.0652
CAGGTTTA | 0.109
TAAGACGA | 0.0211
ATGAGAAA | 0.11
AGCGATGA | 0.111
AATAAGCC | 0.107
CGCAGTTA | 0.109
ACTGGTCT | -0.136
ATGAGCAT | 0.0863
CCGCCTGA | 0.00219
AACCGACC | 0.0873
CAACGCAG | -0.128
ATGCTGAG | -0.0252
GAATAACC | 0.0485
GCGCACCC | -0.102
GCCTGAAA | 0.0109
ACACACGG | -0.205
CGTCGGAG | -0.105
GGGCGCCC | -0.0661
CACGTCTC | -0.189
ATAAACCG | 0.121
CTAATGCA | 0.174
GAACGTGA | 0.0409
GCCTCGTA | 0.00677

Looked up one by one from above:
Sequence | PBM E-score
GCAGTCCA | 0.00721
CCGCTGAC | 0.137
CCAATTCG | 0.0162
GTATCGCA | -0.0983

Going on with the list.

Sequence | PBM E-score
ACCCTTTC | -0.161
ACAGACGC | -0.108
CACCTGCA | -0.0793
GTAGCCGA | -0.171
GACGCTCC | -0.148
CATGCTAA | 0.0262
ATTGTAGC | 0.0104
CATATCAC | 0.136
AGGTATCA | -0.0317
ATCTATCC | -0.00665
CCCACTCA | -0.0571
CCTAGTTA | -0.0425
CATCGTAG | -0.196
ACGCTTAC | 0.269
GGACCAAA | 0.0582
ACGAGTCC | -0.0992
GGCCATAC | 0.056
ACTAAGAA | 0.177
AGGAACAA | -0.0886
TACATTGA | 0.118
AGTTCGGC | -0.0604
TATGAGGA | -0.00288
ACGTTACG | -0.0359
TATCCCAA | 0.0298
GTAACCCA | 0.234

Sequence | PBM E-score
AGACTTAG | -0.233
ACGACACG | 0.0762
GCACAAGA | 0.0328
TCCCGAGA | -0.116
CAAGGTCC | -0.159
AGCTTTCG | -0.238
ACCAACGA | -0.055
GTCACCAC | -0.1
CTTTGGAC | -0.0618
CAAGCCTA | -0.16
ATTCTCGG | 0.175
CACTAGCG | -0.108
CCAGGGTA | -0.144
GCGGGCTA | -0.0859
GATTACTA | 0.387
AAACCCCG | 0.0507
ACGAGCAT | -0.00763
CCGTACTA | 0.159
TCGACGCA | -0.0216
